Some of the results follow.
Biological target: T1, OsSMF1 (Oryza sativa, UniProt Q6ZLB0 1-436)
T1 sequence: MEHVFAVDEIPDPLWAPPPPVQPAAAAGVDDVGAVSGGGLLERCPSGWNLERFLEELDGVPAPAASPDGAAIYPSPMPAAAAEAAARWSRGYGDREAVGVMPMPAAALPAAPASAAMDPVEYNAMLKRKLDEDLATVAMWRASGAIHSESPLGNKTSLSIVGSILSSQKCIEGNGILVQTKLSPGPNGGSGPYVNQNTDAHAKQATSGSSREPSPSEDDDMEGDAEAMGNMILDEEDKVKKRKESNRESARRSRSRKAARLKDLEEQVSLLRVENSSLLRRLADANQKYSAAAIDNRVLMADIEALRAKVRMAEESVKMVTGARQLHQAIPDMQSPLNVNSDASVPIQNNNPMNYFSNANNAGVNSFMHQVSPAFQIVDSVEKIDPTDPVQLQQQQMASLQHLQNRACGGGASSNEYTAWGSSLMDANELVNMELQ
Test: protein-binding microarray (RPBM); PBS, 2% BSA, 51.3 ng/ul salmon testes DNA, 50 uM zinc acetate, 200 nM TF, 25 C, 1 h; high values mean tight binding
Conditions: protein: recombinant; tags: N-terminal polyhistidine and DsRed monomer fusion (pET32a); chain copies: 2; label: CyDye5-dUTP incorporated in the synthesized complementary strand; 3' TTTTT single-stranded linker to array surface; dsDNA, one strand shown
Summary of the method: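 The binding signal is fluorescence intensity per feature, in arbitrary units, read on an Axon 4000B scanner. Polyhistidine- and DsRed-tagged transcription factors (N-terminal fusions) from E. coli BL21-CodonPlus were purified on Ni–NTA and applied at 200 nM for 1 h at 25 °C to a double-stranded, BSA-blocked custom Agilent array in buffer with 50 µM zinc acetate.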

Sequence	binding signal
CTTCTCTTTGTGTTCGCCCGCCTCGGTTAGCAGGTCCTCGCGGAGTCACCTAGTGCAG	3360 fluorescence intensity (a.u.)
TGCTCGATCTCCTCCCCAGGATTAGGGATGAAACTGGTTCCGGAGTCACCTAGTGCAG	4020 fluorescence intensity (a.u.)
TCCCACCAAAATCGTCACATGGACATGCCATGTCACATTTCGGAGTCACCTAGTGCAG	7600 fluorescence intensity (a.u.)
CAGATTAGGACTTCACTACAATCGACGTGCCATAATTCCCCGGAGTCACCTAGTGCAG	3380 fluorescence intensity (a.u.)
CAAGTGCACAACGATTCCAATGTTCGTCAGCTTCGCAGCACGGAGTCACCTAGTGCAG	4620 fluorescence intensity (a.u.)
TAACATATCCTAAAACAATAAATCTGGATAGGAGATTGTTCGGAGTCACCTAGTGCAG	31300 fluorescence intensity (a.u.)
TTTCCTTCCTGATTGTAGTAGCACGTAAGCAGCACTAGGTCGGAGTCACCTAGTGCAG	6490 fluorescence intensity (a.u.)
ATGCTTGTAATTGTCAAGGTGTTAACTGTACGCGGCATATCGGAGTCACCTAGTGCAG	4240 fluorescence intensity (a.u.)
AGAGAGATCCCAATATCACATATTCCACACGCGTACACAACGGAGTCACCTAGTGCAG	30400 fluorescence intensity (a.u.)
AAACAAAATAACTTTATTGTGAGCTGGACCCATGCATTTTCGGAGTCACCTAGTGCAG	3580 fluorescence intensity (a.u.)
CCACATTCCTCCACGTCTCCCGCACCGCCCTTTATTTCCCCGGAGTCACCTAGTGCAG	3190 fluorescence intensity (a.u.)
GATGACGACTGGGACAGAGAGATGACAAGGACGGATGCTGCGGAGTCACCTAGTGCAG	3830 fluorescence intensity (a.u.)
CAATGAATGGATTCACCTGTGAGATGACGTGGTTGTTCCACGGAGTCACCTAGTGCAG	12600 fluorescence intensity (a.u.)
CGTGCCGACGCGTGCCTCGCCAACGTGTCGCAACGCCTCACGGAGTCACCTAGTGCAG	8980 fluorescence intensity (a.u.)
TCCATATAACACGGTTCAATGACGGAATCTCGACTCGTTGCGGAGTCACCTAGTGCAG	3830 fluorescence intensity (a.u.)
GCGTGGTGCTGGTCTCCAAGGATCCCGACAACATCCGCGACGGAGTCACCTAGTGCAG	5380 fluorescence intensity (a.u.)
AGAATATTGGTCGAAGATGACCCTCGAAATGTACAGCTATCGGAGTCACCTAGTGCAG	3500 fluorescence intensity (a.u.)
TGTGGCTGTAAACGTCACGCGTGCCTAACAATCTGCTGCTCGGAGTCACCTAGTGCAG	4170 fluorescence intensity (a.u.)
TCTAATGCCACACACGCAGTAAGTAGGCCAGGCCCGTCCCCGGAGTCACCTAGTGCAG	3410 fluorescence intensity (a.u.)
GCTCCCCACTTATGCCATGCTTTGCCATGCATGACTCCTTCGGAGTCACCTAGTGCAG	3600 fluorescence intensity (a.u.)
GGTTTTGACCCCGGTTTTGTCCGACGTGGTGGCTGAGTTACGGAGTCACCTAGTGCAG	7080 fluorescence intensity (a.u.)

Copied from the list:
TCCCACCAAAATCGTCACATGGACATGCCATGTCACATTTCGGAGTCACCTAGTGCAG – binding signal: 7600 fluorescence intensity (a.u.)
TAACATATCCTAAAACAATAAATCTGGATAGGAGATTGTTCGGAGTCACCTAGTGCAG – binding signal: 31300 fluorescence intensity (a.u.)

Rewritten field by field: entries from further up
CTTCTCTTTGTGTTCGCCCGCCTCGGTTAGCAGGTCCTCGCGGAGTCACCTAGTGCAG
  binding signal = 3360 fluorescence intensity (a.u.)
TGCTCGATCTCCTCCCCAGGATTAGGGATGAAACTGGTTCCGGAGTCACCTAGTGCAG
  binding signal = 4020 fluorescence intensity (a.u.)

(continued)

Sequence	binding signal
GCGGCTTTGCTTACGCGACACTACTGGAGTTAGCGAGCACCGGAGTCACCTAGTGCAG	4090 fluorescence intensity (a.u.)
CACTCCTCTGCTGCTCGTCGTCAATGCCATCCTCATCATGCGGAGTCACCTAGTGCAG	3330 fluorescence intensity (a.u.)
GGCACCAGATTCAGCCCCTAATGATGATTCTGATGTCACCCGGAGTCACCTAGTGCAG	6090 fluorescence intensity (a.u.)
ACAATGACTGCGACTTACTTCGTCCTCCCTCGGCGCGATACGGAGTCACCTAGTGCAG	3190 fluorescence intensity (a.u.)
CACATGCCACGCATGCACCACAGTCCACAGTGCTATGTACCGGAGTCACCTAGTGCAG	9730 fluorescence intensity (a.u.)
ACACTTCCCAAAACCCCAAACCGCCCATATCTCTCTCCTCCGGAGTCACCTAGTGCAG	3340 fluorescence intensity (a.u.)
TAATCATATGTTAACGTCATCTCGTTTTGCATAAAATTATCGGAGTCACCTAGTGCAG	4570 fluorescence intensity (a.u.)
ATTCATATGCAGCACGTACACACGCATGCATGAAGAGGTACGGAGTCACCTAGTGCAG	3170 fluorescence intensity (a.u.)
AAGAGTCGGGTTGTGCTGACCCAAAAGCACGACAGCCCATCGGAGTCACCTAGTGCAG	3250 fluorescence intensity (a.u.)
AAATTGATGACTACTCCACTGCCACTTGCAACCTGTGAGCCGGAGTCACCTAGTGCAG	3550 fluorescence intensity (a.u.)
CTCTCGAAGCTGCCCTAGCCTCTCCGCTGCTCCGATCCACCGGAGTCACCTAGTGCAG	24500 fluorescence intensity (a.u.)
CTCCCTTGCCTCGCTGTAGCACACGTGATTTCTCACCGCTCGGAGTCACCTAGTGCAG	3470 fluorescence intensity (a.u.)
CCGGGGCCGGCAGCGGCGGGCGGGCGGGCTCGAGCGGTGGCGGAGTCACCTAGTGCAG	3580 fluorescence intensity (a.u.)
CTGCACTACGCCGCAGACGAACTGACGTGGTCGTATAAAACGGAGTCACCTAGTGCAG	5790 fluorescence intensity (a.u.)
AATGTTTCAGTTACTAATGATGTGGAAACAAAGAAGAGGACGGAGTCACCTAGTGCAG	3210 fluorescence intensity (a.u.)
AAATACAGCCACGGTGCGTGCCTCGTCTCCTTGCATCCGCCGGAGTCACCTAGTGCAG	3340 fluorescence intensity (a.u.)
ACGACAATAACATATGCCGTGCATGCCAGGTGGCGGCATCCGGAGTCACCTAGTGCAG	6000 fluorescence intensity (a.u.)
CCCTGCTTCCTTTCTTCATCGTCCTCAGCTCATCATCTGCCGGAGTCACCTAGTGCAG	3360 fluorescence intensity (a.u.)
TTAAGATTCGTGCAGCCTCACTCGGACTTGTCATCTGATCCGGAGTCACCTAGTGCAG	3860 fluorescence intensity (a.u.)
CCAATCTCGTCATCCTCTGTCATACAGAGCTTGCCGCTGCCGGAGTCACCTAGTGCAG	4650 fluorescence intensity (a.u.)
GGTTGATTATTCCGTCGGCGTCAGCCATCAGGTGCATCACCGGAGTCACCTAGTGCAG	3270 fluorescence intensity (a.u.)
